The supplement of paper PMC12009310
Structures can show the parent of a compound that is named as a salt. ± gives the standard deviation of the averaged measurements. The list shows a part of the results. Part of the spread comes from offsets between plates or batches.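 The cells are a mouse kidney inner medullary collecting duct line, silenced either for the ciliary gene Rpgrip1l or with a non-targeting control siRNA.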

test system: mIMCD3; assay: robust z score of cell number vs plate controls; higher = more cells (less cytotoxic); settings: 10 µM; 48 h; siRNA: siRpgrip1l

SMILES | robust z score of cell number
C[C@@H]1CN(CCCn2c3ccccc3c3ccccc32)C[C@H](C)N1 [Rimcazole dihydrochloride] | -79 ± 80
O=C1C=CC(=O)C2=C1C1c3ccccc3C2c2ccccc21 | -2.49 ± 0.7
O=C(O)C1=CCCNC1 [Guvacine hydrochloride] | 12.5 ± 17
Cc1cccc(/C=C/c2ccccc2)n1 | -7.61 ± 6.4
C[N+](C)(C)CCCCCNCC12CC3CC(CC(C3)C1)C2 | -16.8 ± 20
OC[C@H]1O[C@@H](n2cnc3c(N[C@H]4CCC[C@@H]4O)ncnc32)[C@H](O)[C@@H]1O | 2.65 ± 3.6
c1ccc2sc(N3CCN(Cc4ccc5c(c4)OCO5)CC3)nc2c1 [2-[1-(4-Piperonyl)piperazinyl]benzothiazole] | -2.78 ± 0.11
C[C@](N)(Cc1ccc(O)c(O)c1)C(=O)O [L-(-)- α-Methyldopa] | -4.62 ± 3.6
O=C(COc1cccc2c(=O)[nH]ccc12)c1ccccc1 | -5.58 ± 2.1
CCN(CC)CCCCC1CCN(CC(=O)N2c3ccccc3C(=O)Nc3cccnc32)CC1 | -6.9 ± 4
NC(=O)N/N=C/c1ccc(Oc2ccc(F)cc2)cc1 | -5.35 ± 4.9
CCCC1O[C@@H]2C[C@H]3[C@@H]4CCC5=CC(=O)C=C[C@]5(C)[C@H]4[C@@H](O)C[C@]3(C)[C@]2(C(=O)CO)O1 (some centres undefined) [Budesonide] | -11.6 ± 3
Cn1ccc2cc3c(cc21)CCN3C(=O)Nc1cccnc1 | -9.4 ± 14
NS(=O)(=O)c1nn2cc(-c3ccccc3)nc2s1 | -5.56 ± 6
CCn1c(=O)n(C2=C(CO)CN(CC3CCCCCCC3)CC2)c2ccccc21 | -18.9 ± 5.6
CN1CCC(Nc2ncc3ncnc(Nc4ccc(F)c(Cl)c4)c3n2)CC1 [BIBX 1382 dihydrochloride] | -20.6 ± 9.8
c1nc(CC2CCNCC2)c[nH]1 [Immepip dihydrobromide] | -1.39 ± 2.1
Nc1ncnc2nc(-c3ccc(N4CCOCC4)nc3)cc(-c3cccc(Br)c3)c12 [ABT 702 dihydrochloride] | -10.9 ± 4.8
CN1[C@@H]2CC[C@H]1C[C@@H](OC(=O)c1c[nH]c3ccccc13)C2 [Tropisetron hydrochloride] | -38.3 ± 48
Fc1ccc(C(c2ccc(F)cc2)N2CCN(C/C=C/c3ccccc3)CC2)cc1 [Flunarizine dihydrochloride] | -66.4 ± 55
O=C1Cc2c([nH]c3ccc(Br)cc23)-c2ccccc2N1 [Kenpaullone] | -307 ± 220
COC(=O)C1=C(C)NC(C)=C(C(=O)NCCCN2CCC(c3ccccc3)(c3ccccc3)CC2)C1c1ccc([N+](=O)[O-])cc1 (centres undefined) | -29.8 ± 15
Cc1cc(C)c(S(=O)(=O)Nc2ccccc2C(F)(F)F)c(C)c1 | -9.07 ± 6.3
O=c1c(-c2ccc(O)cc2)coc2cc(O)ccc12 [Daidzein] | -24.1 ± 19
CN(C)CCCSC(=N)N [Dimaprit dihydrochloride] | -14.8 ± 12

same assay, conditions: 10 µM; 48 h; siRNA: siScr

SMILES | robust z score of cell number
COc1ccc(NC(=O)c2cc(OCCCN(C)C)nn2Cc2ccccc2)cc1 [CFM 1571 hydrochloride] | -45.4 ± 37
CC(=O)N(OCc1ccccc1)[C@H]1c2cc(C#N)ccc2OC(C)(C)[C@H]1O | -1.05 ± 4.1
Cc1ccc(/C=N/NC(=O)c2ccccc2Oc2ccccc2)o1 | -12 ± 9.9
N#Cc1ccc(NCCNCC(=O)N2CCC[C@H]2C#N)nc1 [NVP DPP 728 dihydrochloride] | -1.51 ± 4
Cc1ccc2c(c1)C(=O)C1(O)CCN(c3ccccc3)C1=N2 (racemic) [(±)-Blebbistatin] | -1.86 ± 1.8
CCc1ccc2c(-c3cccc(Cl)c3)nc(=O)n(CC)c2n1 | -4.24 ± 0.84
CC(C)NC[C@H](O)COc1cccc2[nH]ccc12 [(S)-(-)-Pindolol] | 1 ± 0.87
CC1(C)Oc2ccc(C#N)cc2[C@@H](N2CCCC2=O)[C@@H]1O [Levcromakalim] | -3.94 ± 8.5
Nc1nc2ccc(OC(F)(F)F)cc2s1 [Riluzole hydrochloride] | -29 ± 5.2
CC1(C)NC(=O)N(c2ccc([N+](=O)[O-])c(C(F)(F)F)c2)C1=O [Nilutamide] | -7.43 ± 0.21
OCc1cc(C(O)CNCCCCCCOCCCCc2ccccc2)ccc1O (centres undefined) [Salmeterol] | -20.1 ± 8.7
c1cc2c(cc1C1CCCCC1)c1c3n2CCNC3CCC1 (centres undefined) [Tetrindole mesylate] | -42.2 ± 6.7
O=C(O)c1ccc(-c2c[nH]c3ncc(-c4ccccc4)cc23)cc1C1CCCC1 | -14.1 ± 13
CNC(=O)[C@H]1O[C@@H](n2cnc3c(NCc4cccc(I)c4)nc(Cl)nc32)[C@H](O)[C@@H]1O | -15 ± 1.3
C[C@@H]1CN(CCCn2c3ccccc3c3ccccc32)C[C@H](C)N1 [Rimcazole dihydrochloride] | -16.9 ± 4.7
O=C1C=CC(=O)C2=C1C1c3ccccc3C2c2ccccc21 | 1.83 ± 1.5
O=C(O)C1=CCCNC1 [Guvacine hydrochloride] | -0.649 ± 13
Cc1cccc(/C=C/c2ccccc2)n1 | -2.59 ± 0.17
C[N+](C)(C)CCCCCNCC12CC3CC(CC(C3)C1)C2 | -3.24 ± 3.9
OC[C@H]1O[C@@H](n2cnc3c(N[C@H]4CCC[C@@H]4O)ncnc32)[C@H](O)[C@@H]1O | 1.66 ± 2.7

SMILES | robust z score of cell number
c1ccc2sc(N3CCN(Cc4ccc5c(c4)OCO5)CC3)nc2c1 [2-[1-(4-Piperonyl)piperazinyl]benzothiazole] | -2.25 ± 3.4
C[C@](N)(Cc1ccc(O)c(O)c1)C(=O)O [L-(-)- α-Methyldopa] | 2.75 ± 3.7
O=C(COc1cccc2c(=O)[nH]ccc12)c1ccccc1 | -6.97 ± 4.5
CCN(CC)CCCCC1CCN(CC(=O)N2c3ccccc3C(=O)Nc3cccnc32)CC1 | -0.887 ± 0.42
NC(=O)N/N=C/c1ccc(Oc2ccc(F)cc2)cc1 | -33.5 ± 31
CCCC1O[C@@H]2C[C@H]3[C@@H]4CCC5=CC(=O)C=C[C@]5(C)[C@H]4[C@@H](O)C[C@]3(C)[C@]2(C(=O)CO)O1 (some centres undefined) [Budesonide] | -79.7 ± 76
Cn1ccc2cc3c(cc21)CCN3C(=O)Nc1cccnc1 | -4.51 ± 2.5
NS(=O)(=O)c1nn2cc(-c3ccccc3)nc2s1 | -64.2 ± 68
CCn1c(=O)n(C2=C(CO)CN(CC3CCCCCCC3)CC2)c2ccccc21 | -92.9 ± 76
CN1CCC(Nc2ncc3ncnc(Nc4ccc(F)c(Cl)c4)c3n2)CC1 [BIBX 1382 dihydrochloride] | -16.1 ± 0.92
c1nc(CC2CCNCC2)c[nH]1 [Immepip dihydrobromide] | -1.21 ± 3.7
Nc1ncnc2nc(-c3ccc(N4CCOCC4)nc3)cc(-c3cccc(Br)c3)c12 [ABT 702 dihydrochloride] | -4.1 ± 5.4
CN1[C@@H]2CC[C@H]1C[C@@H](OC(=O)c1c[nH]c3ccccc13)C2 [Tropisetron hydrochloride] | -12.2 ± 5.2
Fc1ccc(C(c2ccc(F)cc2)N2CCN(C/C=C/c3ccccc3)CC2)cc1 [Flunarizine dihydrochloride] | -90.6 ± 82
O=C1Cc2c([nH]c3ccc(Br)cc23)-c2ccccc2N1 [Kenpaullone] | -40.5 ± 9.6
COC(=O)C1=C(C)NC(C)=C(C(=O)NCCCN2CCC(c3ccccc3)(c3ccccc3)CC2)C1c1ccc([N+](=O)[O-])cc1 (centres undefined) | -27.3 ± 4.5
Cc1cc(C)c(S(=O)(=O)Nc2ccccc2C(F)(F)F)c(C)c1 | -8.28 ± 0.37
O=c1c(-c2ccc(O)cc2)coc2cc(O)ccc12 [Daidzein] | -4.84 ± 2.6
CN(C)CCCSC(=N)N [Dimaprit dihydrochloride] | -4.83 ± 3.9
